The text below walks through data of PubChem BioAssay AID330 (DTP/NCI, 2004).

The list shows only some results of the screen, not a fair sample: it covers a few groups of compounds. Not every dose and run of a compound is shown. T/C is the treated group as % of the vehicle group. Some doses have a count of surviving animals in place of a T/C: the source holds a T/C of zero for them, seemingly a mark for toxic or unscored doses. Some doses without a T/C left all or most animals alive at the check, yet need not have been tolerated: survival well below the control is almost never listed, so the zero probably covers shortened survival too. Survivors were counted at the toxicity check, usually on the fifth day, unless a day is given; later deaths do not show. Schedules are NCI's codes, read here as Q, the interval in days (D) or hours (H), X, the number of doses. Where survival is the endpoint, the PubChem record calls one and a half times the control and up active, and a quarter to a half above the control has no call in these data; cut-offs in other NCI protocols can differ. Some entries were tested several times; the values are given in rising order. Some T/C values are marked as having no survivor count here; that says nothing about deaths at the dose. Some T/C values carry the count of animals alive at the toxicity check (mostly the fifth day); without a count or a note in brackets, all were alive then.

This test relates to P388 leukemia ip, CD2F1 mice, survival T/C. Put plainly: NCI In Vivo Anticancer Drug Screen. Data for tumor model P388 Leukemia (intraperitoneal) in CD2F1 (CDF1) mice. The conditions noted are these: T/C endpoint: median survival time, higher T/C = longer survival.
Where [1] appears, read: dose: 100.0 mg/kg/injection, schedule: Q04DX002 (ip), vehicle: saline with Tween-80.
The mark [2] stands for this setting: dose: 200.0 mg/kg/injection, schedule: Q04DX002 (ip), vehicle: saline with Tween-80.
[3] abbreviates: dose: 400.0 mg/kg/injection, schedule: Q04DX002 (ip), vehicle: saline with Tween-80.
[4] abbreviates: dose: 12.5 mg/kg/injection, schedule: Q01DX009 (ip), vehicle: saline.
[5] abbreviates: dose: 25.0 mg/kg/injection, schedule: Q01DX009 (ip), vehicle: saline.
Where [6] appears, read: dose: 50.0 mg/kg/injection, schedule: Q01DX009 (ip), vehicle: saline.
The mark [7] stands for this setting: dose: 100.0 mg/kg/injection, schedule: Q01DX009 (ip), vehicle: saline.
The mark [8] stands for this setting: dose: 200.0 mg/kg/injection, schedule: Q01DX009 (ip), vehicle: saline.
The mark [9] stands for this setting: dose: 50.0 mg/kg/injection, schedule: Q04DX003 (ip), vehicle: saline.
Where [10] appears, read: dose: 100.0 mg/kg/injection, schedule: Q04DX003 (ip), vehicle: saline.
Where [11] appears, read: dose: 200.0 mg/kg/injection, schedule: Q04DX003 (ip), vehicle: saline.
Where [12] appears, read: dose: 50.0 mg/kg/injection, schedule: Q01DX005 (ip), vehicle: saline with Tween-80.
The mark [13] stands for this setting: dose: 100.0 mg/kg/injection, schedule: Q01DX005 (ip), vehicle: saline with Tween-80.
The mark [14] stands for this setting: dose: 25.0 mg/kg/injection, schedule: Q01DX009 (ip), vehicle: saline with Tween-80.
The mark [15] stands for this setting: dose: 50.0 mg/kg/injection, schedule: Q01DX009 (ip), vehicle: saline with Tween-80.
[16] abbreviates: dose: 100.0 mg/kg/injection, schedule: Q01DX009 (ip), vehicle: saline with Tween-80.
[17] abbreviates: dose: 200.0 mg/kg/injection, schedule: Q01DX009 (ip), vehicle: saline with Tween-80.

Take `O=P1(Cl)OC(c2ccc(Cl)cc2)=CCN1c1ccc(Cl)cc1` (configuration not stated): the T/C was 93 % of control under setting [1], 104 % of control under setting [2] and 108 % of control under setting [3].
`O=S(=O)(O)Oc1ccc(N(CCCl)CCCl)cc1`: the T/C is, setting by setting: under setting [4], 142 % of control; under setting [5], 164 % of control; under setting [6], 151 and 164 % of control; under setting [7], 163 and 169 % of control; under setting [8], 100 % of control.
Take `COc1ccc(N2CC=C(c3ccc(Cl)cc3)OP2(=O)Cl)cc1` (configuration not stated): the T/C under setting [1] is 100 % of control, the T/C under setting [2] was 95 % of control and the T/C under setting [3] was 104 % of control.
For `CC1=C(C)OP(=O)(n2ccnc2)O1`, the T/C is, setting by setting: under setting [6], 105 % of control; under setting [7], 107 % of control; under setting [8], 107 % of control.
`NP(=O)(N(CCCl)CCCl)N1CC1` (configuration not stated): the T/C is, setting by setting: (dose: 1.56 mg/kg/injection, schedule: Q01DX009 (ip), vehicle: saline) 108 % of control; (dose: 3.13 mg/kg/injection, schedule: Q01DX009 (ip), vehicle: saline) 126 % of control; (dose: 6.25 mg/kg/injection, schedule: Q01DX009 (ip), vehicle: saline) 138 % of control; under setting [4], 178 % of control; under setting [5], 270 % of control. Moreover, under setting [6], the survivor count is 6 of 6.
`[N-]=[N+]=Nc1nc(N)nc(N=[N+]=[N-])n1`: the T/C is 97 % of control [survivor count not shown] (dose: 100.0 mg/kg/injection, schedule: Q01DX001 (ip), vehicle: Klucel (hydroxypropylcellulose) (HPC)); 98 % of control [survivor count not shown] (dose: 200.0 mg/kg/injection, schedule: Q01DX001 (ip), vehicle: Klucel (hydroxypropylcellulose) (HPC)); 96 % of control [survivor count not shown] (dose: 400.0 mg/kg/injection, schedule: Q01DX001 (ip), vehicle: Klucel (hydroxypropylcellulose) (HPC)).
As to `CC(C)CO[P+](=O)OCC(C)C`, the T/C is 100 % of control under setting [9], 100 % of control under setting [10] and 120 % of control under setting [11].
As for `COP(C)(=O)O.[Gd]`, the T/C under setting [9] was 102 % of control [survivor count not shown], the T/C under setting [10] was 96 % of control [survivor count not shown] and the T/C under setting [11] is 95 % of control [survivor count not shown].
Regarding `ClC(Cl)C1SCCCS1`, the T/C under setting [6] was 92 % of control [5 of 6 alive], the T/C under setting [7] is 87 % of control and the T/C under setting [8] is 97 % of control.
Take `O=P1(Cl)OC(c2ccc(Cl)cc2Cl)=CCN1c1ccccc1` (configuration not stated): the T/C (dose: 25.0 mg/kg/injection, schedule: Q01DX005 (ip), vehicle: saline with Tween-80) is 107 % of control; the T/C under setting [12] is 106 % of control; the T/C under setting [13] is 104 % of control.
With `O=C1c2cc([N+](=O)[O-])cc([N+](=O)[O-])c2-c2c1cc([N+](=O)[O-])cc2[N+](=O)[O-]`, the T/C runs as follows: (dose: 12.5 mg/kg/injection, schedule: Q01DX009 (ip), vehicle: saline with Tween-80) 122 % of control [survivor count not shown]; (dose: 12.5 mg/kg/injection, schedule: Q04DX003 (ip), vehicle: saline with Tween-80) 115 % of control [survivor count not shown]; (dose: 16.5 mg/kg/injection, schedule: Q01DX009 (ip), vehicle: saline) 108 % of control [survivor count not shown]; under setting [14], 136 % of control [survivor count not shown]; under setting [5], 104 % of control [survivor count not shown]; (dose: 25.0 mg/kg/injection, schedule: Q04DX003 (ip), vehicle: saline with Tween-80) 110 % of control [survivor count not shown]. For the same molecule, the T/C was 108 % of control [survivor count not shown] (dose: 37.5 mg/kg/injection, schedule: Q01DX009 (ip), vehicle: saline); 127 % of control [survivor count not shown] under setting [15]; 100 % of control [survivor count not shown] (dose: 50.0 mg/kg/injection, schedule: Q04DX003 (ip), vehicle: saline with Tween-80).
With `CN(CCCl)CCCCCCCl`, the T/C runs as follows: (dose: 1.25 mg/kg/injection, schedule: Q01DX009 (ip), vehicle: saline with Tween-80) 100 % of control; (dose: 2.5 mg/kg/injection, schedule: Q01DX009 (ip), vehicle: saline with Tween-80) 97 % of control; (dose: 5.0 mg/kg/injection, schedule: Q01DX009 (ip), vehicle: saline with Tween-80) 110 % of control; (dose: 10.0 mg/kg/injection, schedule: Q01DX009 (ip), vehicle: saline with Tween-80) 124 % of control; (dose: 20.0 mg/kg/injection, schedule: Q01DX009 (ip), vehicle: saline with Tween-80) 138 % of control; (dose: 40.0 mg/kg/injection, schedule: Q01DX009 (ip), vehicle: saline with Tween-80) 133 % of control.
Regarding `Cc1ccc2c(c1)C(=O)C(Cl)(C(Cl)c1ccccc1)S2` (configuration not stated), the T/C is 103 % of control under setting [15], 96 % of control under setting [16] and 96 % of control under setting [17].
For `CC1CCN(C)C(c2ccccc2)C1.O=[N+]([O-])c1cc([N+](=O)[O-])c(O)c([N+](=O)[O-])c1`, the T/C is 100 % of control under setting [12]; 100 % of control under setting [13]; 97 % of control [4 of 6 alive] (dose: 200.0 mg/kg/injection, schedule: Q01DX005 (ip), vehicle: saline with Tween-80).
For the molecule `Cc1ccc(O[S+](C)(=O)N(C)C)cc1.F[P-](F)(F)(F)(F)F` (configuration not stated), the T/C is 107 % of control under setting [15], 110 % of control under setting [16] and 94 % of control [5 of 6 alive] under setting [17].
Take `CC1(CCC2(C)N=C(NN=C(CCl)CCl)SP2(=O)Nc2ncccn2)N=C(NN=C(CCl)CCl)SP1(=O)Nc1ncccn1` (configuration not stated): the T/C runs as follows: (dose: 60.0 mg/kg/injection, schedule: Q01DX005 (ip), vehicle: saline) 106 % of control; (dose: 120.0 mg/kg/injection, schedule: Q01DX005 (ip), vehicle: saline) 95 % of control [4 of 6 alive]. For the same molecule, where the note is “dose: 240.0 mg/kg/injection, schedule: Q01DX005 (ip), vehicle: saline”, the survivor count is recorded as 0 of 6.
Regarding `Cc1ccc(N2CC=C(c3ccc(Cl)cc3)OP2(=O)Cl)cc1` (configuration not stated), the T/C by setting is: under setting [1], 107 % of control; under setting [2], 105 % of control; under setting [3], 116 % of control.
Turning to `CC(C)OP(C)(=O)O.[Nd]`, the T/C reads like this: under setting [14], 95 % of control [survivor count not shown]; under setting [15], 87 % of control [survivor count not shown]; under setting [16], 91 % of control [survivor count not shown]; (dose: 100.0 mg/kg/injection, schedule: Q04DX003 (ip), vehicle: saline with Tween-80) 106 % of control [survivor count not shown]; under setting [17], 96 % of control [survivor count not shown]; (dose: 200.0 mg/kg/injection, schedule: Q04DX003 (ip), vehicle: saline with Tween-80) 97 % of control [survivor count not shown]. For the same molecule, the T/C (dose: 400.0 mg/kg/injection, schedule: Q04DX003 (ip), vehicle: saline with Tween-80) is 95 % of control [survivor count not shown].
